Assay results published in publication doi:10.1101/2020.02.19.956169.
For at least one entry, the source does not settle the construct or the ends of the probe. Protein sequences can lack the tags named with them.

Target: T1, BaRecJ (Bacillus alcalophilus) (UniProt A0A094WFF5)
T1 sequence (looked up, limits assumed): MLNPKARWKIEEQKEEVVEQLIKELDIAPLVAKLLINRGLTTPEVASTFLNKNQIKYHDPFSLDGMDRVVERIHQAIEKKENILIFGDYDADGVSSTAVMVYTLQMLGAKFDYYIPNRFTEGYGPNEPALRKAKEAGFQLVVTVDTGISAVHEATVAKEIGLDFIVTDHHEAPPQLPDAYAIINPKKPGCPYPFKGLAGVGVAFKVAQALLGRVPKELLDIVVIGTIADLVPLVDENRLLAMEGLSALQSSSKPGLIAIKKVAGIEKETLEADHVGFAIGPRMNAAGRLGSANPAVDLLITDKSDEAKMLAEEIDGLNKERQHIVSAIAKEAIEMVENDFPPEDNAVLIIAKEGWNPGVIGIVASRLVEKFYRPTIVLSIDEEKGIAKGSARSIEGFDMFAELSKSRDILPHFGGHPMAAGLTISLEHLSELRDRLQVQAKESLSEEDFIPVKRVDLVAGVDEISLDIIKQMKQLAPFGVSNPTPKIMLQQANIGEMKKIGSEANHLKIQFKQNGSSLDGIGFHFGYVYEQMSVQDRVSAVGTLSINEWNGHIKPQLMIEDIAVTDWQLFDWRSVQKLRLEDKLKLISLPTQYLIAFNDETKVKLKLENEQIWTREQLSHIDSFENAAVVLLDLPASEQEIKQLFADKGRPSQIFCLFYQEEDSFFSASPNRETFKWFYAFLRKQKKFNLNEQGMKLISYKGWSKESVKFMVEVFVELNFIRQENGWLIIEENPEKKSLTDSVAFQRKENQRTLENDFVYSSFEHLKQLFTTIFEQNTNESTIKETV
Test: EMSA
Details: Ca2+ replacing Mn2+, bound most strongly among the substrates; 5'-OH

Does “TCCGATAGCCAGATATCTTGACA [ssDNA oligonucleotide (DD295)]” bind?
Result: binds
